Data on 3 compounds can be found in publication PMC3909575, “Purification and characterization of an extracellular laccase from solid-state culture of Pleurotus ostreatus HP-1” (3 Biotech, 2013).

This data set deals with T1, laccase.
T1 construct: purified native extracellular laccase from strain HP-1, 68,420 Da
The data set is described as follows: steady-state oxidation kinetics (Km, Lineweaver-Burk). It is filed as biochemical, Pleurotus ostreatus.
For the compound `COc1cc(-c2ccc(N)c(OC)c2)ccc1N` [O-dianisidine], the Km came to 23.5 mM.

In the case of `CCn1c(=NN=c2sc3cc(S(=O)(=O)O)ccc3n2CC)sc2cc(S(=O)(=O)O)ccc21` [ABTS, 2,2′-azino-bis-3-ethyl-benzthiazoline-6-sulphonic acid], the Km is 46.5 mM.

Regarding `COc1ccccc1O` [Guaiacol], the Km was found to be 100 mM.
